Laboratory results as given in the supplement of paper PMC10849652.
The list shows a part of the results.

The chains behind the UniProt entries cited, without tags or fusion partners. Where a name states a change or a piece, a line headed by the entry shows the natural chain unless it says otherwise.
UniProt P54098: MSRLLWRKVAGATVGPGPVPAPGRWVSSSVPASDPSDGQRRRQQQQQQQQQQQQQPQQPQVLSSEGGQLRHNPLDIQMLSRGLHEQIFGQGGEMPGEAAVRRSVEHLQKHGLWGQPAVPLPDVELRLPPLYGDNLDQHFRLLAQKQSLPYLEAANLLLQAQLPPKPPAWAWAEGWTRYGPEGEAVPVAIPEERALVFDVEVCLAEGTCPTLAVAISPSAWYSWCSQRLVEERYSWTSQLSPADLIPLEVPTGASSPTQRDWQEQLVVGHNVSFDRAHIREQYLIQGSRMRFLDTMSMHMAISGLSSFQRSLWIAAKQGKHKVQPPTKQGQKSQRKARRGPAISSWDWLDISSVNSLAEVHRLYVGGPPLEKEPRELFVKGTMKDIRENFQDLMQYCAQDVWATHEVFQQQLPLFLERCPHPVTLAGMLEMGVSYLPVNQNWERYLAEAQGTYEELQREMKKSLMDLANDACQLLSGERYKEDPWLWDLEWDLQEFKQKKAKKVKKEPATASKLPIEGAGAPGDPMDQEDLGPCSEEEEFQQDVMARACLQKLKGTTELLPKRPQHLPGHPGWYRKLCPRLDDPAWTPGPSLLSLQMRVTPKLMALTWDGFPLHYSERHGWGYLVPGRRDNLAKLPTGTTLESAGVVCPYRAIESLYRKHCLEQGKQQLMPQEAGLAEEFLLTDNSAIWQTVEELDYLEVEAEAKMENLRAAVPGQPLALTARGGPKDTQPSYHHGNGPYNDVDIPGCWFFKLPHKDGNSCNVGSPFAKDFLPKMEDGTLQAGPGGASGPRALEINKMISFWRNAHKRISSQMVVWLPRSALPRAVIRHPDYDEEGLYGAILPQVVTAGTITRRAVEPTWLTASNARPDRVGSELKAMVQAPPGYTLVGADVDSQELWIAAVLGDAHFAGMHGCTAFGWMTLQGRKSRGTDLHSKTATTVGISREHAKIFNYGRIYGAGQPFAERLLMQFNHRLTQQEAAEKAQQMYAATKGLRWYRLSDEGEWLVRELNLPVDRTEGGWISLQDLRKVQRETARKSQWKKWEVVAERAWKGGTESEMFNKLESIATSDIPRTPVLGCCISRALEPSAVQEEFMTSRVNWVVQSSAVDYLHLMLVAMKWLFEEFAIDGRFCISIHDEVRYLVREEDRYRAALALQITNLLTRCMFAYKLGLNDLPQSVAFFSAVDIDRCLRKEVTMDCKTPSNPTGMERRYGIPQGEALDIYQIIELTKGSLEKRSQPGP
UniProt Q96HA1, whole entry, looked up: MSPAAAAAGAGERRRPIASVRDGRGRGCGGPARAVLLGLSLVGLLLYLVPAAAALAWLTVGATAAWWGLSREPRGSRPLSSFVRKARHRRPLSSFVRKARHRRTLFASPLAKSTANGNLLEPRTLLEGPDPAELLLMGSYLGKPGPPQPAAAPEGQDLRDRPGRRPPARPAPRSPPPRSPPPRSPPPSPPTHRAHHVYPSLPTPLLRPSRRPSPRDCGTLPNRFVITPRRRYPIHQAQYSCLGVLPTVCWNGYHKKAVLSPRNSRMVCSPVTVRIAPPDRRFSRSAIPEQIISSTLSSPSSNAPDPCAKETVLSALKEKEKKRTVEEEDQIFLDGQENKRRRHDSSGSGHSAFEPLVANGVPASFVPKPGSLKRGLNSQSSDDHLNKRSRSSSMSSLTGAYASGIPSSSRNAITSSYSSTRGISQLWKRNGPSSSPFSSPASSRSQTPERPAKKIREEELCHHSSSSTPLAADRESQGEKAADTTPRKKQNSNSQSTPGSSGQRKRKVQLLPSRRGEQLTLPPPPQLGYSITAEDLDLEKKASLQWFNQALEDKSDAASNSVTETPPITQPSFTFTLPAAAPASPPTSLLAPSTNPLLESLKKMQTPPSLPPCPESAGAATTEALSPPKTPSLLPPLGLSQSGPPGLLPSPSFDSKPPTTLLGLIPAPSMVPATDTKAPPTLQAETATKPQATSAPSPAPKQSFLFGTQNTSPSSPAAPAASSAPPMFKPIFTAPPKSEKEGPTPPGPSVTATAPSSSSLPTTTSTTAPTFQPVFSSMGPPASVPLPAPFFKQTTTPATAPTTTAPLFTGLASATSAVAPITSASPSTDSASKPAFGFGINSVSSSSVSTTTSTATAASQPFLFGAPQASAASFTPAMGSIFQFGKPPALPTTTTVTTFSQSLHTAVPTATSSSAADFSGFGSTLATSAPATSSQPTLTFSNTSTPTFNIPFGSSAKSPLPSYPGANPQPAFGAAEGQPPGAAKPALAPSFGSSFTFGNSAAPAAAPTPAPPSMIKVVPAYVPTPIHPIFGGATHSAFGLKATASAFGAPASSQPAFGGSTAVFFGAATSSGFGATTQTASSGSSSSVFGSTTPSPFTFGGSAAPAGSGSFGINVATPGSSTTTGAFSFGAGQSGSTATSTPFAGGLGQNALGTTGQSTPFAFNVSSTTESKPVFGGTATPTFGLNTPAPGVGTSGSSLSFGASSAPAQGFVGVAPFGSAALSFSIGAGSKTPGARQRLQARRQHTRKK
UniProt Q9NP80: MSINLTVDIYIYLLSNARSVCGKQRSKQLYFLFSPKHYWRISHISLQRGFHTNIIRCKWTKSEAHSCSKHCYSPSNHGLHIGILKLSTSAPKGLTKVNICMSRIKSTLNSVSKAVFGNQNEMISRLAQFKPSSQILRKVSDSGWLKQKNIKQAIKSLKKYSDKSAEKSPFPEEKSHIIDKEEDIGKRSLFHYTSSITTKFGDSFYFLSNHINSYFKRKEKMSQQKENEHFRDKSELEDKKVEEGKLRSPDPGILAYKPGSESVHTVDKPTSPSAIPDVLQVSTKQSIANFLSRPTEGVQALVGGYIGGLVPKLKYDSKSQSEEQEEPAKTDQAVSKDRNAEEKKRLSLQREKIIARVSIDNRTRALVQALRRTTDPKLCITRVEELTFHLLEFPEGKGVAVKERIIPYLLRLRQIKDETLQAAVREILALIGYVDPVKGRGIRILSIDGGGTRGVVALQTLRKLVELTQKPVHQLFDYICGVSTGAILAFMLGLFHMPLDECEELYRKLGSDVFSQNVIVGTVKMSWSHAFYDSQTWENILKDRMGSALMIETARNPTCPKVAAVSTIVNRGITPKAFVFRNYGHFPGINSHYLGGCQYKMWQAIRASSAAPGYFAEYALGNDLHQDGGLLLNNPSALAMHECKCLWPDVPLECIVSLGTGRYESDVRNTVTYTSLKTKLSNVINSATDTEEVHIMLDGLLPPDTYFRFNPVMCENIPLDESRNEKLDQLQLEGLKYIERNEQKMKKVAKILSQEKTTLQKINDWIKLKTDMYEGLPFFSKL
UniProt P0DPB6, whole entry, looked up: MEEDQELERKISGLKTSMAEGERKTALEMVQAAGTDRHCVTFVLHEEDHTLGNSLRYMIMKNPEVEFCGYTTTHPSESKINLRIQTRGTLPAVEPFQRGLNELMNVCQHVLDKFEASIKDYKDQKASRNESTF
UniProt O43447: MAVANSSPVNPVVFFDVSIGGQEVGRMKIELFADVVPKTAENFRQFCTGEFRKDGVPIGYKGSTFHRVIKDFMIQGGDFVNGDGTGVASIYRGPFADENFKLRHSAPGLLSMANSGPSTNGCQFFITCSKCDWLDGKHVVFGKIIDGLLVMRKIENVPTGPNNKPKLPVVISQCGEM
UniProt Q6P1K2: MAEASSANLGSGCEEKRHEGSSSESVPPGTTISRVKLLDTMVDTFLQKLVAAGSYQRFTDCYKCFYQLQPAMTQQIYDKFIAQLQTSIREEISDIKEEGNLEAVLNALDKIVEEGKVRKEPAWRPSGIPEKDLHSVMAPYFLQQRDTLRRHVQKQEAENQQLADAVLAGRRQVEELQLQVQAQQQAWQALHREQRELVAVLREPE
UniProt Q8N490: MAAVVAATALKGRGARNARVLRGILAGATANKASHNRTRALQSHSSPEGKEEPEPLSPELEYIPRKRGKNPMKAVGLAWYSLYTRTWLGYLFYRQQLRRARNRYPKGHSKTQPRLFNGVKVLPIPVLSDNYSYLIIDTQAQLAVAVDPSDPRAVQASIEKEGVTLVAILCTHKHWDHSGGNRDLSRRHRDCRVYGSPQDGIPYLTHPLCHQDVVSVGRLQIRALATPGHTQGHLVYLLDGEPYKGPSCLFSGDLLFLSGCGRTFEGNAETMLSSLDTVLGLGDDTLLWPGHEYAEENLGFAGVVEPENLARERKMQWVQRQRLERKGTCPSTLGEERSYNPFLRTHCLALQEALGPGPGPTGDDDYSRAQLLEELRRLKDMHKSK
UniProt Q8IY26: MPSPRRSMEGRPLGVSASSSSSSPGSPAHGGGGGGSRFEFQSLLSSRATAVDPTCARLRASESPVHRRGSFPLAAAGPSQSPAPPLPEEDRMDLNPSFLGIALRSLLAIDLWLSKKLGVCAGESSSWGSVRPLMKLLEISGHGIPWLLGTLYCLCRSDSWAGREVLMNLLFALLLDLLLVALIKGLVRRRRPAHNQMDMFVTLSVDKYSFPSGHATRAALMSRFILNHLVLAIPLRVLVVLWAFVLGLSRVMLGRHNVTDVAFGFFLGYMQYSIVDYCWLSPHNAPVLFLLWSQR
UniProt Q9H5K3: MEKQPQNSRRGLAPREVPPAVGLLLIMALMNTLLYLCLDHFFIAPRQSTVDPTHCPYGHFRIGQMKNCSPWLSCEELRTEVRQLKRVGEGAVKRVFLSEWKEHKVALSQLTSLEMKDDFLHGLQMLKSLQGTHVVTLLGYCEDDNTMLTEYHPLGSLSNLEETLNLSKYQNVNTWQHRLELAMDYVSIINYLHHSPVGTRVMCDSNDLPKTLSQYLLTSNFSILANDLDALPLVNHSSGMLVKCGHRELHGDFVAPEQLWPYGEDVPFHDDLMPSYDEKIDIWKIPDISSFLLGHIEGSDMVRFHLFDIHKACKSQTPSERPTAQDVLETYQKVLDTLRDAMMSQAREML
UniProt Q02809: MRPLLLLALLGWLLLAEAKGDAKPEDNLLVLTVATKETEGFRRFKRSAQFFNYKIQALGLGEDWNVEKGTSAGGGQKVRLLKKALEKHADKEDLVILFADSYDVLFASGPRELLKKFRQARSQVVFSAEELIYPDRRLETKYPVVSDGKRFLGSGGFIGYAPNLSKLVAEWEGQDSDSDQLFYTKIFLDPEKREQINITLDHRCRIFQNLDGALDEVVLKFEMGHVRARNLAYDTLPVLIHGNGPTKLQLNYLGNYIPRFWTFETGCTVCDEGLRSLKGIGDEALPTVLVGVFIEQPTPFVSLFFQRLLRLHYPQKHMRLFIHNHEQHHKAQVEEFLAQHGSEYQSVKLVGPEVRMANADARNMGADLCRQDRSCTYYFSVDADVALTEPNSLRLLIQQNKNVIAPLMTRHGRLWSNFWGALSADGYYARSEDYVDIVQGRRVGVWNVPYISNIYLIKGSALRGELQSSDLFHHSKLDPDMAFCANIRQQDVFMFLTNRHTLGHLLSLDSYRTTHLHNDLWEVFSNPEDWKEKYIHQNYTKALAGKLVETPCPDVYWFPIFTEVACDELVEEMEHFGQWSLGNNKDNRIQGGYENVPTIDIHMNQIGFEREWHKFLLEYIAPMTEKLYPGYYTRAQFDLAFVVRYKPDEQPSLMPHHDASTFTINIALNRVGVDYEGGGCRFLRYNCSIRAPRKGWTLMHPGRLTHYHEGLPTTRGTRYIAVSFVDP
UniProt Q9NZ53: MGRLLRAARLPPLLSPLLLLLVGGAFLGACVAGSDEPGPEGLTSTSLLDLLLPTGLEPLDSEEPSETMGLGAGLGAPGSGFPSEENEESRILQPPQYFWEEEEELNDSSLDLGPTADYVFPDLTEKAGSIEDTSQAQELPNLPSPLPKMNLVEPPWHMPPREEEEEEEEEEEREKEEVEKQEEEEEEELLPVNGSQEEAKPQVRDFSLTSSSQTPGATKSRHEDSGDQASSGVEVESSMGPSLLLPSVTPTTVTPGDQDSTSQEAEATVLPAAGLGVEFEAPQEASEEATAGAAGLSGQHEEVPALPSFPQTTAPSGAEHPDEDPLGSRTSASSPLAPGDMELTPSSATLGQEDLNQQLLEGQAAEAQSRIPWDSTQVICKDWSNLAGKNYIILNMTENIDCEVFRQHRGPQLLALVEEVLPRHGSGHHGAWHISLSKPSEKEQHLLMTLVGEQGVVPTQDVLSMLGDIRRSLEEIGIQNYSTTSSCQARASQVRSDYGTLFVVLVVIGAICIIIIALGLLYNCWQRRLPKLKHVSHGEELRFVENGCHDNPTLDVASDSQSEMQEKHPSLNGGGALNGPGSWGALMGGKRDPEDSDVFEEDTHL
UniProt Q9BX97: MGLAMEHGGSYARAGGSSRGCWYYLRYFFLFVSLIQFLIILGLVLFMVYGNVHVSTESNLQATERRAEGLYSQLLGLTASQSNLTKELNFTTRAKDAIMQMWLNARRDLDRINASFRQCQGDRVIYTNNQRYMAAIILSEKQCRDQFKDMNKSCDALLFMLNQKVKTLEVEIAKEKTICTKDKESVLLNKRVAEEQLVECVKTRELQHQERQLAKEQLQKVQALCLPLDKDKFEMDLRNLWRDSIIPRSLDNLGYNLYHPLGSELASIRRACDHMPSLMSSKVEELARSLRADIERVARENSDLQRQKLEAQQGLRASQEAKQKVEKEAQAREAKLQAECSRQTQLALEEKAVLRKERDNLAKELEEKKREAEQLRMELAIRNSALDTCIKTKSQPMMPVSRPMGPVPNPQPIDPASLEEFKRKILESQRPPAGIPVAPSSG

Legend:
Assay in all cases: log2 fold change, soluble protein after heating vs DMSO (PISA); higher = thermal stabilisation; K562 cells, 10 uM, 30 min; active = over 0.2 and 3.5 SD of the protein, either way, in both replicates (recomputed)
[1] = compound: C1=CC=C(C=C1)[C@H](COC2=CC3=C(C=C2)NC(=O)N3)NC(=O)C4=CC=CN(C4=O)CC5=CC(=C(C=C5)F)F
Method in brief: (§1)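 K562 cells at 2×10^6 cells/mL were given 10 μM compound for 30 min. Aliquots then went through 3 min of heating across 48°C-58°C, were pooled, and were extracted in PBS with 0.5% NP-40 at 4°C, and the supernatant after 21,000xg for 90 min was quantified by TMTpro 16plex LC-MS/MS with channel sums equalised. Thermal stability relative to control samples, from duplicates, is given as log2 fold change.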

[2] = compound: CC1=C(SC2=C1C(=N[C@H](C3=NN=C(N32)C)CC(=O)N)C4=CC=C(C=C4)Cl)C
Method in brief: as §1

[3] = compound: CC1=C2C(=CC=C1)N=C(N(C2=O)C3=CC=CC=C3C)CN4C=NC5=C(N=CN=C54)N
Method in brief: as §1

[4] = compound: Cc1sc2c(c1C)C(c1ccc(Cl)cc1)=N[C@@H](CC(=O)OC(C)(C)C)c1nnc(C)n1-2
Method in brief: as §1

[5] = compound: c1ccc([C@@H]2C[C@H]2NC2CCNCC2)cc1
Method in brief: as §1

Measured: log2 fold change

POLG (UniProt P54098)
inactive: [1] 0.052 | [2] -0.057 | [3] 0.197 | [4] -0.171 | [5] -0.029

PLOD3 (UniProt O60568)
inactive: [1] 0.025 | [2] -0.059 | [3] -0.015 | [4] 0.038 | [5] -0.015

POLR2E (UniProt P19388)
inactive: [1] -0.013 | [2] 0.094 | [3] -0.023 | [4] 0.054 | [5] -0.06

POLR2I (UniProt P36954)
inactive: [1] 0.063 | [2] 0.104 | [3] -0.163 | [4] 0.194 | [5] -0.035

POLG2 (UniProt Q9UHN1)
inactive: [1] 0.012 | [2] 0 | [3] -0.028 | [4] 0.008 | [5] 0.006

POLR2H (UniProt P52434)
inactive: [1] -0.005 | [2] 0.04 | [3] 0.107 | [4] 0.006 | [5] -0.068

POM121 (UniProt Q96HA1)
inactive: [1] 0.023 | [2] -0.033 | [3] 0.026 | [4] 0.054 | [5] -0.002

PNPLA8 (UniProt Q9NP80)
inactive: [1] 0.024 | [2] 0.031 | [3] 0.007 | [4] -0.006 | [5] 0.024

POLR1D (UniProt P0DPB6)
inactive: [1] 0.147 | [2] -0.083 | [3] 0.026 | [4] -0.074 | [5] 0.03

Retrieved one by one from the list above (two):
PNPLA8 (UniProt Q9NP80)
inactive: [1] 0.024 | [2] 0.031 | [3] 0.007 | [4] -0.006 | [5] 0.024

POLG2 (UniProt Q9UHN1)
inactive: [1] 0.012 | [2] 0 | [3] -0.028 | [4] 0.008 | [5] 0.006

Later entries

PPIB (UniProt P23284)
inactive: [1] 0.02 | [2] -0.045 | [3] 0.003 | [4] 0.004 | [5] -0.004

PPIH (UniProt O43447)
inactive: [1] -0.052 | [2] 0.013 | [3] 0.108 | [4] 0 | [5] -0.021

POLE3 (UniProt Q9NRF9)
inactive: [1] -0.058 | [2] 0.052 | [3] 0.064 | [4] -0.002 | [5] 0.024

PMF1 (UniProt Q6P1K2)
inactive: [1] 0.009 | [2] -0.025 | [3] -0.003 | [4] -0.044 | [5] -0.02

PLEKHO2 (UniProt Q8TD55)
inactive: [1] -0.067 | [2] 0.197 | [3] 0.023 | [4] -0.081 | [5] 0.145

PNKD isoform 2 (UniProt Q8N490)
inactive: [1] 0.012 | [2] 0.089 | [3] 0.096 | [4] 0.037 | [5] -0.011

PLPP6 (UniProt Q8IY26)
inactive: [1] 0.018 | [2] -0.016 | [3] -0.182 | [4] -0.16 | [5] 0.151

POLA2 (UniProt Q14181)
inactive: [1] -0.023 | [2] 0.048 | [3] 0.114 | [4] -0.006 | [5] 0.034

POMK (UniProt Q9H5K3)
inactive: [1] 0.04 | [2] 0.027 | [3] -0.041 | [4] -0.067 | [5] -0.022

POLR2F (UniProt P61218)
inactive: [1] 0.017 | [2] 0.011 | [3] 0.095 | [4] -0.024 | [5] -0.131

POLR2G (UniProt P62487)
inactive: [1] 0.082 | [2] 0.176 | [3] 0.001 | [4] 0.167 | [5] -0.016

PLOD1 isoform 2 (UniProt Q02809)
inactive: [1] 0.057 | [2] -0.092 | [3] -0.008 | [4] 0.008 | [5] 0

POP4 (UniProt O95707)
inactive: [1] -0.01 | [2] 0.038 | [3] 0.042 | [4] 0.068 | [5] -0.135

PLK1 (UniProt P53350)
inactive: [1] 0.02 | [2] 0.037 | [3] 0.019 | [4] -0.012 | [5] 0.007

PODXL2 (UniProt Q9NZ53)
inactive: [1] 0.028 | [2] 0.102 | [3] 0.065 | [4] 0.024 | [5] -0.014

PLVAP (UniProt Q9BX97)
inactive: [1] -0.144 | [2] 0.143 | [3] 0.118 | [4] -0.028 | [5] -0.044
